Data from the supplement of paper PMC10849652.
This is one part of the list.

Amino acid sequences for entries named in this document (tags omitted). A change or cut given only in a name is not applied to a line headed by its entry.
UniProt Q9H000: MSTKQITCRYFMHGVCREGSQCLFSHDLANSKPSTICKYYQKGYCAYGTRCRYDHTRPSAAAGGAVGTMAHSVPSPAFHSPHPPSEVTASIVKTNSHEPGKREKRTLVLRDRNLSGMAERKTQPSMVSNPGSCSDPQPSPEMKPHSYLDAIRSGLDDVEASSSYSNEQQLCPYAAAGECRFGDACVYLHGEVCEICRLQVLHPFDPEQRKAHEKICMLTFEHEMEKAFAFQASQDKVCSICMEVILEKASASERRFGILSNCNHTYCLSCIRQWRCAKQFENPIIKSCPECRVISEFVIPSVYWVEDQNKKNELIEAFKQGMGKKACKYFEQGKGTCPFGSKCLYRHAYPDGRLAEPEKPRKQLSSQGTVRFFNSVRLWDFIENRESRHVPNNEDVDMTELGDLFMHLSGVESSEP
UniProt Q13724: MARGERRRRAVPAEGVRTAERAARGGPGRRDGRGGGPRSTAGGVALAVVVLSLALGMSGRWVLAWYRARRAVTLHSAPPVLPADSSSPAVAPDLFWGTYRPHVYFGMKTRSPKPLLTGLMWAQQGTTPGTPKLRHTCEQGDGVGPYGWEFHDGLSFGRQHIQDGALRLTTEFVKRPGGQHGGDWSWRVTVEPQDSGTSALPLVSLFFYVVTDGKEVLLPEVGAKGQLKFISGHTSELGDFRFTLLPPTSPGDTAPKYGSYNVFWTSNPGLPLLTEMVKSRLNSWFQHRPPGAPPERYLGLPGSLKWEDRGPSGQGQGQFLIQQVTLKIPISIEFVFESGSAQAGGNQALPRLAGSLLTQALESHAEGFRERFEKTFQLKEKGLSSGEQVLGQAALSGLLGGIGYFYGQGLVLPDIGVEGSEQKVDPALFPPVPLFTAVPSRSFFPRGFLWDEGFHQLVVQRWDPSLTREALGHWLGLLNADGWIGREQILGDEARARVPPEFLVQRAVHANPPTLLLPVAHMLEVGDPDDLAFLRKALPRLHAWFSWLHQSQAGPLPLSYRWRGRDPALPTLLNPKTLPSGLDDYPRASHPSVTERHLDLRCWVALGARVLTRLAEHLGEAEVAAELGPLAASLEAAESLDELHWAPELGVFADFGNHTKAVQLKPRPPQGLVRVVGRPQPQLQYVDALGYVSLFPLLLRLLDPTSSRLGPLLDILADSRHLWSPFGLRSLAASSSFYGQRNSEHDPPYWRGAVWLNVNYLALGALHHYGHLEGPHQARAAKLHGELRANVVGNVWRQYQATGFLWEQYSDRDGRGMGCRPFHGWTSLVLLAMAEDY
UniProt Q5TGZ0: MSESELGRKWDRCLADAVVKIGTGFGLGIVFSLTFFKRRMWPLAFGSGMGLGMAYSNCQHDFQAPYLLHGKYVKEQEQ
UniProt Q9BU76: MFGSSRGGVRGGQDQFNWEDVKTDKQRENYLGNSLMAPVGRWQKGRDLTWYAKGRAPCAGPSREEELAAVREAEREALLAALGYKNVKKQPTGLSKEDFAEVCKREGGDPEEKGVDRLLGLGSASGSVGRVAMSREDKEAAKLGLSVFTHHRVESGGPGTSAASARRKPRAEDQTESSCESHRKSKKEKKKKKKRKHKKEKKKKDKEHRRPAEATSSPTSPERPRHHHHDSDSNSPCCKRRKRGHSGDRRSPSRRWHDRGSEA
UniProt Q9HAP2: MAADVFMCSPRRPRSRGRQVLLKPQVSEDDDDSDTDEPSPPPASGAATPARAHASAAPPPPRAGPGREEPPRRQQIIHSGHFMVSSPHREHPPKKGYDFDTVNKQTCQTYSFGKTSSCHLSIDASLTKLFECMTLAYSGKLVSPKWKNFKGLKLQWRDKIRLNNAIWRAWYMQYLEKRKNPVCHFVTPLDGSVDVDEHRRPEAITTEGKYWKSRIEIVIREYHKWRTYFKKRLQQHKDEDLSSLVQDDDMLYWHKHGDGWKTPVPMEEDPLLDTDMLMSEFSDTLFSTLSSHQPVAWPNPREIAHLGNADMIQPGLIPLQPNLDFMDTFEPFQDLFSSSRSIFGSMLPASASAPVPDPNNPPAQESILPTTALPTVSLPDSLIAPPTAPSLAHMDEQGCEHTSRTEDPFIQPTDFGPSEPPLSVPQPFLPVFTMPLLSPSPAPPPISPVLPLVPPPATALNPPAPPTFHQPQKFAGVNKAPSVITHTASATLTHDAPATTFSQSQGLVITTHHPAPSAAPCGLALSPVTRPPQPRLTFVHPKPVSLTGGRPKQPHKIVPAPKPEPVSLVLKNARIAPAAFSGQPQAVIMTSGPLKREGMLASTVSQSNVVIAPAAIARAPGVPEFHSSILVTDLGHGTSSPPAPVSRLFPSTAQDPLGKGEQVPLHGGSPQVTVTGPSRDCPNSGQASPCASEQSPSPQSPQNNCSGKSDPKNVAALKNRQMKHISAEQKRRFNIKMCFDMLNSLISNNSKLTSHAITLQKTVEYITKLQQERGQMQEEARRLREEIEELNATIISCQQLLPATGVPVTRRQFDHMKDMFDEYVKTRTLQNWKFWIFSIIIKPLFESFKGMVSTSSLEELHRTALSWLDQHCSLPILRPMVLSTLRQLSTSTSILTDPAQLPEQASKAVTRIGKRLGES
UniProt P22033: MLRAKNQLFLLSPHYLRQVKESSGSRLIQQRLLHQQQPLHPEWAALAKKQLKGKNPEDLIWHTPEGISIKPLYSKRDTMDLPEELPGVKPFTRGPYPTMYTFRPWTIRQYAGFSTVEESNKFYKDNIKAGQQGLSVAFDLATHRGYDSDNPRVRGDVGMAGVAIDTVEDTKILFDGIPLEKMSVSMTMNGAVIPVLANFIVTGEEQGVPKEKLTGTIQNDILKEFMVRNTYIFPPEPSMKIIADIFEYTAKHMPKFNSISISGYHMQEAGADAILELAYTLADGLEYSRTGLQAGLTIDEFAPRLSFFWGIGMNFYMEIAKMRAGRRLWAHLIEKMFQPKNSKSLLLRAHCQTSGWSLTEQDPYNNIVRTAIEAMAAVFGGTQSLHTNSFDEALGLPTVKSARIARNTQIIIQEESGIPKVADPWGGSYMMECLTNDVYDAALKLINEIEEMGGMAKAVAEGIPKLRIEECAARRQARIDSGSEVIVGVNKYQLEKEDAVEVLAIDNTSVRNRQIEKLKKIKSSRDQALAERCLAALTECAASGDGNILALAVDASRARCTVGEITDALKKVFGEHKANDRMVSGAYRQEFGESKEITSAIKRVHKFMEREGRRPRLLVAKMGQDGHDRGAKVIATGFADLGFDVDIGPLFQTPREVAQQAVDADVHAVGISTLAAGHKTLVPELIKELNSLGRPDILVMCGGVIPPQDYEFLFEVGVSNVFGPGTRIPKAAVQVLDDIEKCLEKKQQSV
UniProt Q9UNW1: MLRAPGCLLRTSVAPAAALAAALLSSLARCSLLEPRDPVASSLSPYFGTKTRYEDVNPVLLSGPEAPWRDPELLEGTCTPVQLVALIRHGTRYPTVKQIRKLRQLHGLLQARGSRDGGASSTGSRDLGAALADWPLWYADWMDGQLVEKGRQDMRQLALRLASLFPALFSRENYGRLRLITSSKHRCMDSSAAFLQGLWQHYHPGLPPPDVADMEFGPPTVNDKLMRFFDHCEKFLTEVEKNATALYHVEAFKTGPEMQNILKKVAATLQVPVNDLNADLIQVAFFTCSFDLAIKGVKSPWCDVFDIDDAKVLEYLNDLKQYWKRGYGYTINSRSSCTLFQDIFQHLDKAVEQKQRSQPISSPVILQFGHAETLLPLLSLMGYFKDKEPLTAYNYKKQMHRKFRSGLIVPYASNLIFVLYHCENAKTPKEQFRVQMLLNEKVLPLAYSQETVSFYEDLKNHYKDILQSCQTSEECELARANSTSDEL
UniProt Q7RTP6, whole entry, looked up: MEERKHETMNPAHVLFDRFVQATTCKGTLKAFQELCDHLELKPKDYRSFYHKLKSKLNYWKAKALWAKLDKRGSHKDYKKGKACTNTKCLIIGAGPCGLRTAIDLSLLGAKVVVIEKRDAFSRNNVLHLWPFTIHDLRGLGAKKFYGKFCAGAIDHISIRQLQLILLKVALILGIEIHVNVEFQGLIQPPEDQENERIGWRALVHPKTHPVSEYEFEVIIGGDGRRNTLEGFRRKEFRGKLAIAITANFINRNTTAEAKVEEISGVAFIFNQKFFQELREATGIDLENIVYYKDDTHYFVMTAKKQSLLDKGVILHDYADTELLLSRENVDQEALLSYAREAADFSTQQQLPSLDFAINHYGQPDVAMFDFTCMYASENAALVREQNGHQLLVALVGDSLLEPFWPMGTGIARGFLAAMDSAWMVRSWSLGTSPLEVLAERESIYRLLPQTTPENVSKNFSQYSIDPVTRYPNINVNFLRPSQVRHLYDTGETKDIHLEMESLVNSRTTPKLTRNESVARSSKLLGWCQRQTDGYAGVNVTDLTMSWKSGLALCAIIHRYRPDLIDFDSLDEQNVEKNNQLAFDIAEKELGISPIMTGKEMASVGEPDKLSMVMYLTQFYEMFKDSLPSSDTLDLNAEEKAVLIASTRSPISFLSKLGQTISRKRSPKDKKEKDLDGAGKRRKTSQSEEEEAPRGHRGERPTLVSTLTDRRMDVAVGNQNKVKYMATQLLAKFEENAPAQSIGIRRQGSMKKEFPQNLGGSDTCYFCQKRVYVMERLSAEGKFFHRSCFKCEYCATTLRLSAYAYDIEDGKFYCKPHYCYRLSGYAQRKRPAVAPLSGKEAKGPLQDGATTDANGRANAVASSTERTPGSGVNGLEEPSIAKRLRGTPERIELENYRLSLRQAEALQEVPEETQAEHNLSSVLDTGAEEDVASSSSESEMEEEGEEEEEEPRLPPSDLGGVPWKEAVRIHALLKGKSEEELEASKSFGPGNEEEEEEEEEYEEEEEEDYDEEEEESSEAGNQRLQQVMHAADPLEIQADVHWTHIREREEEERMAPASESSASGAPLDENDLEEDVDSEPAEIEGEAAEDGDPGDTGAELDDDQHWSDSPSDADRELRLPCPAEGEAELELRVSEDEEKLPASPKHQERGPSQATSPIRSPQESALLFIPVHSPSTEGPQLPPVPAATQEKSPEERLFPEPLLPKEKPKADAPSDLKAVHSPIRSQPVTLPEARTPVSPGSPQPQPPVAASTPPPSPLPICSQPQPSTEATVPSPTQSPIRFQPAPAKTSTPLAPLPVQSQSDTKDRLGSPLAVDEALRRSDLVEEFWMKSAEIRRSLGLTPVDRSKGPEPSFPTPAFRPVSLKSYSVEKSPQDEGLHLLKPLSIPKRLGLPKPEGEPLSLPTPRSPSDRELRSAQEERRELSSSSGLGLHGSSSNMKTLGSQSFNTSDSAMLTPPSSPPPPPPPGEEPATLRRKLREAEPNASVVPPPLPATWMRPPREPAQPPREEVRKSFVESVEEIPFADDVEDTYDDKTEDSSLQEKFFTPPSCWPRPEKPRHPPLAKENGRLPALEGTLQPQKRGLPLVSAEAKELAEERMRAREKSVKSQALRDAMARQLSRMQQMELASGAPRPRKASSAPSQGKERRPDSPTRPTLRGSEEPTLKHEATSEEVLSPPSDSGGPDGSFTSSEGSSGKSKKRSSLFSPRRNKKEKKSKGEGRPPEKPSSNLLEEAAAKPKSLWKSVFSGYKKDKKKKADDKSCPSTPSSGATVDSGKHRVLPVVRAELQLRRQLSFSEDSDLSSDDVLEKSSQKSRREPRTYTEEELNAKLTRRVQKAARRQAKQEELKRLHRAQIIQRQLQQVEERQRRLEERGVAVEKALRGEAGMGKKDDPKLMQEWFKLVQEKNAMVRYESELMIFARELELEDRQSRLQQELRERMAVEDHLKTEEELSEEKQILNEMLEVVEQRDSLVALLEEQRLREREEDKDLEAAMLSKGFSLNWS
UniProt Q9H3L0: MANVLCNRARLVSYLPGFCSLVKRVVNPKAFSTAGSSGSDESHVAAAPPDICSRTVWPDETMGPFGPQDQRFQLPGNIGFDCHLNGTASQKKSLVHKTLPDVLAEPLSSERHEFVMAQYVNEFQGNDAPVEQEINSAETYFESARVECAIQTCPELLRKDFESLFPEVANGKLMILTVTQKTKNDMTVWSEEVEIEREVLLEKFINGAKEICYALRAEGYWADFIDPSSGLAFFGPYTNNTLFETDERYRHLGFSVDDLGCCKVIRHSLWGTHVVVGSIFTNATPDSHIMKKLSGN
UniProt Q96EY8: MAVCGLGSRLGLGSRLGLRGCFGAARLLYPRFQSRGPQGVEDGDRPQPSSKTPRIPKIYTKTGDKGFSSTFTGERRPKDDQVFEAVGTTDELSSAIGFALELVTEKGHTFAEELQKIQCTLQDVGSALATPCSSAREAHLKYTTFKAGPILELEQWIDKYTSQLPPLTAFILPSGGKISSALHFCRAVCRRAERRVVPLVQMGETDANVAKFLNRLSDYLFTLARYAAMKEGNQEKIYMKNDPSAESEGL
UniProt Q15773: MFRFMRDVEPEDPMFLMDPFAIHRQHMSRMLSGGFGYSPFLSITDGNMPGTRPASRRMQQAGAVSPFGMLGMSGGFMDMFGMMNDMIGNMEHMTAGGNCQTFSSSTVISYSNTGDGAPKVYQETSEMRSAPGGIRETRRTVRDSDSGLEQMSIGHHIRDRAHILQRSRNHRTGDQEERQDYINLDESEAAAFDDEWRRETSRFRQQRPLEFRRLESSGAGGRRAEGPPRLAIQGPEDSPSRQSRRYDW

Compound: C1=CC=C2C(=C1)C3=NNC4=CC=CC(=C43)C2=O
Assay: log2 fold change, soluble protein after heating vs DMSO (PISA); higher = thermal stabilisation; K562 lysate, 10 uM; active = over 0.2 and 3.5 SD of the protein, either way, in both replicates (recomputed)
How it was run: (§1)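 Values give the log-two fold change in thermal stability against solvent controls, from duplicates. Crude K562 extract at 1 mg/mL protein, made by dounce homogenisation in PBS pH 7.4 with 1 mM MgCl2, was treated with 10 μM compound for 30 min. After 3 min heating across 48°C-58°C, aliquots were pooled, adjusted to 0.5% NP-40 at 4°C and centrifuged at 21,000xg for 90 min. The supernatant was measured by TMTpro 16plex LC-MS/MS with channel sums equalised.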

log2 fold change, inactive:
MOB1B isoform 2 (UniProt Q7L9L4) -0.012
MINK1 (UniProt Q8N4C8) 0
MKRN2 (UniProt Q9H000) 0.014
MIF (UniProt P14174) 0.047
MOGS (UniProt Q13724) -0.051
MICOS10 (UniProt Q5TGZ0) 0.025
MICB, A0A140T979 0.046
MMTAG2 (UniProt Q9BU76) -0.003
MPST isoform 2 (UniProt P25325) 0.004
MRPL14 (UniProt Q6P1L8) 0.028
MRPL23 (UniProt Q16540) -0.057
MGME1 (UniProt Q9BQP7) -0.032
MRM3 (UniProt Q9HC36) 0.035
MLXIP (UniProt Q9HAP2) -0.011
MPP6 (UniProt Q9NZW5) -0.016
MMUT (UniProt P22033) -0.009
MKLN1 (UniProt Q9UL63) 0
MPHOSPH10 (UniProt O00566) 0.038
MOCS1 isoform 8 (UniProt Q9NZB8) 0
MOB2 isoform 3 (UniProt Q70IA6) -0.133
MORF4L1 isoform 2 (UniProt Q9UBU8) 0.017
MINPP1 (UniProt Q9UNW1) 0.026
MNX1 (UniProt P50219) 0.011
MLLT1 (UniProt Q03111) 0.021
MRPL19 (UniProt P49406) -0.019
MPRIP isoform 2 (UniProt Q6WCQ1) -0.03
MOCS3 (UniProt O95396) -0.02
MICAL3 (UniProt Q7RTP6) -0.006
MOB3A (UniProt Q96BX8) 0.11
MMADHC (UniProt Q9H3L0) 0.012
MPZL1 (UniProt O95297) -0.005
MIS12 (UniProt Q9H081) 0.019
MPLKIP (UniProt Q8TAP9) 0.01
MKRN1 (UniProt Q9UHC7) -0.159
MMAB (UniProt Q96EY8) -0.035
MON1B (UniProt Q7L1V2) 0.005
MGST1 (UniProt P10620) -0.036
MLF2 (UniProt Q15773) -0.021

Compound: C1CCN(C1)C(=O)NC2=CC=CC(=C2)NC3=NC=C(C(=N3)NCCC4=CN=CN4)Br
Assay: as above
How it was run: as §1

log2 fold change, inactive:
MOB1B isoform 2 (UniProt Q7L9L4) -0.01
MINK1 (UniProt Q8N4C8) 0.016
MKRN2 (UniProt Q9H000) -0.015
MIF (UniProt P14174) -0.023
MOGS (UniProt Q13724) 0.015
MICOS10 (UniProt Q5TGZ0) 0.007
MICB, A0A140T979 -0.021
MMTAG2 (UniProt Q9BU76) 0.005
MPST isoform 2 (UniProt P25325) -0.025
MRPL14 (UniProt Q6P1L8) -0.018
MRPL23 (UniProt Q16540) 0.013
MGME1 (UniProt Q9BQP7) 0.006
MRM3 (UniProt Q9HC36) 0.003
MLXIP (UniProt Q9HAP2) -0.025
MPP6 (UniProt Q9NZW5) -0.031
MMUT (UniProt P22033) -0.04
MKLN1 (UniProt Q9UL63) -0.019
MPHOSPH10 (UniProt O00566) 0.026
MOCS1 isoform 8 (UniProt Q9NZB8) -0.056
MOB2 isoform 3 (UniProt Q70IA6) -0.003
MORF4L1 isoform 2 (UniProt Q9UBU8) -0.04
MINPP1 (UniProt Q9UNW1) 0.027
MNX1 (UniProt P50219) 0.123
MLLT1 (UniProt Q03111) 0.061
MRPL19 (UniProt P49406) -0.014
MPRIP isoform 2 (UniProt Q6WCQ1) 0.029
MOCS3 (UniProt O95396) 0.143
MICAL3 (UniProt Q7RTP6) -0.032
MOB3A (UniProt Q96BX8) 0.065
MMADHC (UniProt Q9H3L0) -0.001
MPZL1 (UniProt O95297) 0.015
MIS12 (UniProt Q9H081) -0.038
MPLKIP (UniProt Q8TAP9) -0.014
MKRN1 (UniProt Q9UHC7) 0.002
MMAB (UniProt Q96EY8) 0.002
MON1B (UniProt Q7L1V2) -0.009
MGST1 (UniProt P10620) -0.07
MLF2 (UniProt Q15773) 0.083
